Source: PMC4940160, “Architecture and RNA binding of the human negative elongation factor”
The comparison behind a weaker result is the experiment's own reference, which may not be listed here.

Test system: NELF-A (6-188) + NELF-C (183-590)
Experiment: fluorescence anisotropy
Conditions: NELF-AC: 30 mM NaCl, 3 mM MgCl2, 10 mM Na-HEPES pH 7.4, 2 mM DTT, 50 ug/ml BSA, other NELF complexes: same with 60 mM NaCl and 5 ug/ml yeast tRNA, 10 nM nucleic acid, recombinant protein, protein details: N-His6 removed by thrombin,none, label: 5'-FAM

AGGGAGCTGGGAGCTGGGGG [junB ssDNA]
binding result (single-stranded DNA): binds more weakly

CCGCAUCUGCAGCGAGCAUCUGAGA [c-fos ssRNA]
binding result (binds, prefers DNA): binds more weakly
